Patent US20160201132A1, “GENE EXPRESSION BIOMARKERS OF LAQUINIMOD RESPONSIVENESS” (Teva Pharmaceutical Industries Ltd., priority 2013, published 2016)
This continues a long series; more values of the same kind are listed elsewhere.

System: PBMC of RRMS patients
Experiment: Gene expression microarray analysis (HG-U133A-2) of PBMC from RRMS patients treated with LAQ, ancillary study to ALLEGRO
Type: in vivo, human
Description: The goal of this ancillary study was to characterize gene expression changes and corresponding biological mechanisms induced in PBMC of RRMS patients by LAQ treatment. According to ALLEGRO clinical trial inclusion criteria, 25 patients were randomly assigned to receive LAQ (n=13, age 38.8±2.3 years, female/male ratio: 8/5) or placebo (n=12, age 37.2±3.4 years, female/male ratio: 8/4).
Peripheral blood samples were obtained from RRMS patients at baseline before start of LAQ treatment or placebo, after 0, 1, 6 and 24 month of treatment (visit 0, 1, 6 and 7 according to ALLEGRO clinical trial protocol correspondently) for gene microarray analysis.
Briefly, 1) Peripheral blood mononuclear cells (PBMC) were obtained from RRMS patients that participated in ALLEGRO and were treated daily with 0.6 mg LAQ or placebo. PBMC were subjected for gene expression analysis (HU-133A-2-Affymatrix arrays) at baseline and at 1 and 6 months of LAQ treatment; 2) Data was analyzed by Partek Genomics Solution software. Most informative genes (MIGs) were defined as those that differentiated between groups with p<0.01. Gene functional annotation, enrichment and pathway analysis were performed by Ingenuity software. For each time point, genes that changed in placebo group were excluded from further analysis; and 3) Verification of LAQ related mechanism was performed by Western blot.
PBMC were extracted from 15 ml peripheral blood, separated by Ficoll-Hypaque gradient. Total RNA was extracted using both Trizol (Invitrogen, USA) and Phase-Lock-Gel columns (Eppendorf, Germany) including a DNase digestion step. RNA integrity was assessed by RNA Experion automated electrophoresis system (Bio-Rad Laboratories, Hercules, Calif.).
Probe synthesis using 3 μg total RNA, hybridization, detection, and scanning was performed according to the standard Affymetrix, Inc. USA protocols; cDNA was synthesized using the Two-Cycle cDNA Synthesis Kit (Affymetrix, Inc., USA), and in-vitro transcription performed with the GeneChip IVT Labeling Kit (Affymetrix, Inc., USA). The biotin-labeled IVT-RNA was hybridized to HG-U133A-2 arrays containing 18,400 gene transcripts, each corresponding to 14,500 well-annotated human genes, washed in a GeneChip Fluidics Station 450 (Hewlett Packard, USA, GeneArray-™ scanner G2500A) and scanned according to the manufacturer's protocol (Affymetrix, Inc., USA).
Data analysis was performed on Partek Genomics Solution software (www.partek.com; Partek Incorporated, St. Louis, Mo.). Expression values were computed from raw CEL files by applying the Robust Multi-Chip Average (RMA) background correction algorithm. RMA correction included: 1) values background correction; 2) quintile normalization; 3) log 2 transformation; and 4) median polish summarization. The ANOVA, Repeated Measures and correlation analysis implicated in Partek software ware applied to evaluate LAQ effects. Most informative genes MIGs were defined as those that differentiated between experimental groups with p<0.01. All p-values were calculated for False Discovery Rate (FDR) multiple test correction at p=0.05.
Additionally, significance of individual genes was tested by parametric T-test and non parametric Mann-Whitney test using Bootstrapping approach based on repeated permutations of the data with 5% FDR for multiple testing.
Gene functional annotation, enrichment, and pathway analyses to identify the leading biological pathways that operated under LAQ treatment were performed by Ingenuity Pathways Analysis software (www.ingenuity.com).
ANOVA analysis was used to compare PBMC gene expression after 1, 6 or 24 month of LAQ treatment with baseline gene expression.
For each time point inventors performed analysis source of variation in dataset. (FIG. 1). Age, gender and batch effects were considered as confounders regarding LAQ or Placebo related changes. For each time point genes associated with Placebo effect were evaluated and excluded from further analysis. […]

CCN(C(=O)c1c(O)c2c(Cl)cccc2n(C)c1=O)c1ccccc1 [LAQ, 5-chloro-N-ethyl-4-hydroxy-1-methyl-2-oxo-N-phenyl-1,2-dihydroquinoline-3-carboxamide]
Fold-Change (4.0 vs. 0.0) (gene ADAMTSL2): −1.188
Fold-Change (4.0 vs. 0.0) (gene ADARB1, after six months of LAQ): −1.229
Fold-Change (4.0 vs. 0.0) (gene ADCYAP1R1, six months of treatment): −1.151
Fold-Change (4.0 vs. 0.0) (gene ADH6, PBMC, six months of LAQ treatment): −1.114
Fold-Change (4.0 vs. 0.0) (gene ADRA1A, after six months of LAQ): −1.14
Fold-Change (4.0 vs. 0.0) (gene ADRBK1, six months of treatment): −1.148
Fold-Change (4.0 vs. 0.0) (gene AGTR2, six months of treatment): −1.144
Fold-Change (4.0 vs. 0.0) (gene AGXT, after six months of LAQ): −1.143
Fold-Change (4.0 vs. 0.0) (gene AHCTF1, after six months of LAQ): −1.304
Fold-Change (4.0 vs. 0.0) (gene AHI1): −1.188
Fold-Change (4.0 vs. 0.0) (gene AKAP4, PBMC, six months of LAQ treatment): −1.121
Fold-Change (4.0 vs. 0.0) (gene AKAP5, after six months of LAQ): −1.124
Fold-Change (4.0 vs. 0.0) (gene AKR1B10, six months of treatment): −1.156
Fold-Change (4.0 vs. 0.0) (gene ALDH1A2, after six months of LAQ): −1.39
Fold-Change (4.0 vs. 0.0) (gene ALDOB, PBMC, six months of LAQ treatment): −1.105
Fold-Change (4.0 vs. 0.0) (gene ALPP /// ALPPL2): −1.189
Fold-Change (4.0 vs. 0.0) (gene ALX1, six months of treatment): −1.157
Fold-Change (4.0 vs. 0.0) (gene AMHR2, after six months of LAQ): −1.253
Fold-Change (4.0 vs. 0.0) (gene ANGPTL3, after six months of LAQ): −1.1414
Fold-Change (4.0 vs. 0.0) (gene ANK2, after six months of LAQ): −1.143
Fold-Change (4.0 vs. 0.0) (gene ANKLE2, six months of treatment): −1.152
Fold-Change (4.0 vs. 0.0) (gene ANKRD34C, after six months of LAQ): −1.125
Fold-Change (4.0 vs. 0.0) (gene ANKRD53, after six months of LAQ): −1.137
Fold-Change (4.0 vs. 0.0) (gene ANKS1B, six months of treatment): −1.156
Fold-Change (4.0 vs. 0.0) (gene ANO2, six months of treatment): −1.147
Fold-Change (4.0 vs. 0.0) (gene ANO3, six months of treatment): −1.152
Fold-Change (4.0 vs. 0.0) (gene ANP32A /// ANP32C /// ANP32D /// LOC723972, PBMC, six months of LAQ treatment): −1.074
Fold-Change (4.0 vs. 0.0) (gene AOC3, after six months of LAQ): −1.13
Fold-Change (4.0 vs. 0.0) (gene AP4E1, six months of treatment): −1.149
Fold-Change (4.0 vs. 0.0) (gene APBB2, PBMC, six months of LAQ treatment): −1.121
Fold-Change (4.0 vs. 0.0) (gene APBB2, after six months of LAQ): −1.14
Fold-Change (4.0 vs. 0.0) (gene APOBEC2, six months of treatment): −1.16
Fold-Change (4.0 vs. 0.0) (gene AQP5, after six months of LAQ): −1.228
Fold-Change (4.0 vs. 0.0) (gene ARHGAP1, after six months of LAQ): −1.254
Fold-Change (4.0 vs. 0.0) (gene ARHGDIA, after six months of LAQ): −1.254
Fold-Change (4.0 vs. 0.0) (gene ARHGEF15, six months of treatment): −1.155
Fold-Change (4.0 vs. 0.0) (gene ARHGEF16, six months of treatment): −1.16
Fold-Change (4.0 vs. 0.0) (gene ARL4D): −1.177
Fold-Change (4.0 vs. 0.0) (gene ARSD, six months of treatment): −1.153
Fold-Change (4.0 vs. 0.0) (gene ARSJ, after six months of LAQ): −1.128
Fold-Change (4.0 vs. 0.0) (gene ARVCF, PBMC, six months of LAQ treatment): −1.117
Fold-Change (4.0 vs. 0.0) (gene ASAP3): −1.188
Fold-Change (4.0 vs. 0.0) (gene ASCL3, after six months of LAQ): −1.243
Fold-Change (4.0 vs. 0.0) (gene ASIP, after six months of LAQ): −1.231
Fold-Change (4.0 vs. 0.0) (gene ATAD4): −1.189
Fold-Change (4.0 vs. 0.0) (gene ATN1, after six months of LAQ): −1.137
Fold-Change (4.0 vs. 0.0) (gene ATP1A2, six months of treatment): −1.147
Fold-Change (4.0 vs. 0.0) (gene ATP1B1, after six months of LAQ): −1.511
Fold-Change (4.0 vs. 0.0) (gene ATP2A2, after six months of LAQ): −1.226
Fold-Change (4.0 vs. 0.0) (gene ATP6V1B1, PBMC, six months of LAQ treatment): −1.115
Fold-Change (4.0 vs. 0.0) (gene ATXN3L, after six months of LAQ): −1.127
Fold-Change (4.0 vs. 0.0) (gene AZGP1, after six months of LAQ): −1.229
Fold-Change (4.0 vs. 0.0) (gene B3GALT1, after six months of LAQ): −1.143
Fold-Change (4.0 vs. 0.0) (gene B4GALT1, after six months of LAQ): −1.231
Fold-Change (4.0 vs. 0.0) (gene BBOX1, six months of treatment): −1.153
Fold-Change (4.0 vs. 0.0) (gene BCAM, after six months of LAQ): −1.136
Fold-Change (4.0 vs. 0.0) (gene BCAT1, after six months of LAQ): −1.305
Fold-Change (4.0 vs. 0.0) (gene BGN, after six months of LAQ): −1.252
Fold-Change (4.0 vs. 0.0) (gene BICC1, after six months of LAQ): −1.127
Fold-Change (4.0 vs. 0.0) (gene BIRC5, after six months of LAQ): −1.245
Fold-Change (4.0 vs. 0.0) (gene BMP7, after six months of LAQ): −1.134
Fold-Change (4.0 vs. 0.0) (gene BOK, PBMC, six months of LAQ treatment): −1.111
Fold-Change (4.0 vs. 0.0) (gene BTF3L1, after six months of LAQ): −1.127
Fold-Change (4.0 vs. 0.0) (gene C1QL1, six months of treatment): −1.153
Fold-Change (4.0 vs. 0.0) (gene C1orf175 /// TTC4, six months of treatment): −1.148
Fold-Change (4.0 vs. 0.0) (gene C2orf72): −1.191
Fold-Change (4.0 vs. 0.0) (gene C4A /// C4B /// LOC100292046 /// LOC100294156, after six months of LAQ): −1.248
Fold-Change (4.0 vs. 0.0) (gene C5orf4, after six months of LAQ): −1.46
Fold-Change (4.0 vs. 0.0) (gene C6orf10, PBMC, six months of LAQ treatment): −1.096
Fold-Change (4.0 vs. 0.0) (gene C6orf15): −1.177
Fold-Change (4.0 vs. 0.0) (gene C6orf54, six months of treatment): −1.149
Fold-Change (4.0 vs. 0.0) (gene C6orf145, after six months of LAQ): −1.328
Fold-Change (4.0 vs. 0.0) (gene C6orf155, six months of treatment): −1.147
Fold-Change (4.0 vs. 0.0) (gene C8orf39, after six months of LAQ): −1.273
Fold-Change (4.0 vs. 0.0) (gene C8orf71, PBMC, six months of LAQ treatment): −1.098
Fold-Change (4.0 vs. 0.0) (gene C8orf79, PBMC, six months of LAQ treatment): −1.11
Fold-Change (4.0 vs. 0.0) (gene C9orf116, after six months of LAQ): −1.139
Fold-Change (4.0 vs. 0.0) (gene C10orf10, after six months of LAQ): −1.229
Fold-Change (4.0 vs. 0.0) (gene C15orf2, after six months of LAQ): −1.264
Fold-Change (4.0 vs. 0.0) (gene C16orf71): −1.195
Fold-Change (4.0 vs. 0.0) (gene C17orf53): −1.185
Fold-Change (4.0 vs. 0.0) (gene C19orf26): −1.192
